These are yes or no findings as the source states them, for the method shown. In cells and extracts the contact can be indirect. Sequences can lack the tags named with a protein.
Molecular target: T1, GST-tagged wild-type Ana2, treated with kinase-dead Plk4 (not phosphorylated) (Drosophila melanogaster), Q9XZ31
T1 chain: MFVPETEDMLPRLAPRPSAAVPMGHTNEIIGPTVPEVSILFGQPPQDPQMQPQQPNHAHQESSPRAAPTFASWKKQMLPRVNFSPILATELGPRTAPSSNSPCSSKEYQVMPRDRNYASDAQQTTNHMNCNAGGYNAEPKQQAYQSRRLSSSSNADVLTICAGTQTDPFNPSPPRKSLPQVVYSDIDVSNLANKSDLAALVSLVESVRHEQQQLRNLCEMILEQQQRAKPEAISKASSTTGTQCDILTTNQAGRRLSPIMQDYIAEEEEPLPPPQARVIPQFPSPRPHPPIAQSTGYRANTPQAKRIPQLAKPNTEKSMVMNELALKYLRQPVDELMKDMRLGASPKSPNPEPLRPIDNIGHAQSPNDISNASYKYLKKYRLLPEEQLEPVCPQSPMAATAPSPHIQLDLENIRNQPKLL
Assay: pull-down; GST-tagged wild-type or S38A Ana2 from E. coli immobilized on beads, treated with active or kinase-dead Plk4, then incubated with S^35-labelled Sas6 from coupled IVTT; only the target purified
Conditions: remark: other sources report otherwise

- binding: no binding
B1: S^35-labelled Sas6, generated by coupled IVTT, Q9VAC8 1-472 (protein)
chain: MWPPGSEDSYSAKMDYGKSVVNILPSVEMLVNFNGEMTRSSKRSCLLYAERVDFKELLQLRLTEKSDQRRMYITTVDSASFQDLKQDQSLNVSFSGFIDNVVRMLKDCQSGKLELHLTTRDQNLSSGREVHDYYLQFVEIRSFKNLVHLSLPCRSAPLNTVLFYINSMLEASHKKQYILEQSMQQMQAEINAQRAHAERLTTENTNIREALAENTRILEEKHAAEVHQYQEKLSKINEQRSNELERNRRAISGFQAQLDKASLEKAELKSAQEQAEKRCQTLSEELSCCKARVCTLKEQNDKLHGDVANIRKHERKLEYKIEDLKQHTVELQEHIQKGNKEKANIAAELEAEKKILHTKRQALEMASEEISKANQIIVKQSQELLNLKKTIAWRTEVALQQEKAVQAKESLLSLRENELREARITIEKLREEIPQQLQSMRNFAQGLEQKYSKQILILKERLAIPTGKENRR
modifications: here or on the partner: S^35-labelled

From article PMC5746551
